Reference: paper PMC5724004
Results are given in words; binding and its absence hold for the method and conditions named. Binding seen in cells or lysates may run through a third protein. Binding calls can cover weak binding; strength is not graded here.

Target: T1, breakpoint cluster region (BCR) (rat (endogenous in cultured hippocampal and cortical neurons)) (UniProt F1LXF1)
T1 sequence: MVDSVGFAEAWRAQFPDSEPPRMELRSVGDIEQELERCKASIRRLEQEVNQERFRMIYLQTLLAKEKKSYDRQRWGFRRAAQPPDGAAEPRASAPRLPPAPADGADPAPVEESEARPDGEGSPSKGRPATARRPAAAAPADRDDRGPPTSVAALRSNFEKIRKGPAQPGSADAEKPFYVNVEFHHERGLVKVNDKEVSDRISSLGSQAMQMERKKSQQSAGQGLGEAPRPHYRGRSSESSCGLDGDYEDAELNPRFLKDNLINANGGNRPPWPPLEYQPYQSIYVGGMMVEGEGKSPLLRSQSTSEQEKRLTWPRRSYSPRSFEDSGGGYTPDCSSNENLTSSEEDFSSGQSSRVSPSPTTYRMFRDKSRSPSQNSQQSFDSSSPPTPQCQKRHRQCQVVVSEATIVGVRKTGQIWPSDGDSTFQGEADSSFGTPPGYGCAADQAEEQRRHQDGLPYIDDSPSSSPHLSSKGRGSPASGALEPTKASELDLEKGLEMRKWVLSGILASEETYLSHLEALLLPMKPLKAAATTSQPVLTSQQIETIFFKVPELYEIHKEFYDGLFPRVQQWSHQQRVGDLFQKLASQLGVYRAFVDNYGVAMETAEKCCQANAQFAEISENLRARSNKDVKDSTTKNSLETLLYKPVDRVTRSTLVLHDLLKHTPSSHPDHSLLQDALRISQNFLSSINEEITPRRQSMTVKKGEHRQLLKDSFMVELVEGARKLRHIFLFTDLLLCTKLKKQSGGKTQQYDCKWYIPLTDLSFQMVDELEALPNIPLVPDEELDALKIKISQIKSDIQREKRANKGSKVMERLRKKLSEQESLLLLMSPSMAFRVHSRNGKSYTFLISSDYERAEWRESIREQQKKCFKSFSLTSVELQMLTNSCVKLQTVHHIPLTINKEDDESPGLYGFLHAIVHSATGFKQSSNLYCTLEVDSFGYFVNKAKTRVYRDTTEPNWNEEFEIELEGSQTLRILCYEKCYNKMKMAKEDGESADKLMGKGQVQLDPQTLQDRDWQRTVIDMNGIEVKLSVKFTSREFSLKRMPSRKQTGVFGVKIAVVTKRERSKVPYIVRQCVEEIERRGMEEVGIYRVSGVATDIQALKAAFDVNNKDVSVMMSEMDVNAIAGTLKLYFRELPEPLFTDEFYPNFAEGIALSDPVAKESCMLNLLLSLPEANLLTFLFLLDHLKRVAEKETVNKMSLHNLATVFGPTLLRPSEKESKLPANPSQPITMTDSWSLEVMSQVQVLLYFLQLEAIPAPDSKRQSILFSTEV
Assay: co-IP; lysate of cultured rat hippocampal or cortical neurons (50 mM Tris pH 7.5, 1% Triton X-100, 150 mM NaCl, 1 mM EDTA), 2 μg antibody 2 h at 4 °C, protein G beads, Western blot; control conditions or OGD

binding: binds
Substance: Tiam1
